From the supplement of paper PMC12823440, “Inhibitors supercharge kinase turnover through native proteolytic circuits” (Nature, 2025)
Where a name gives a salt, the structure may show the parent alone. This is one part of the list. Hit calls seldom repeat between salt and free forms of one compound.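 Kinases, fused to nanoluciferase, were expressed in K562 cells; luminescence was measured every 4 h from 2 to 18 h as percent of control (DMSO = 100%, positive control = 0%). A time point is decreased if signal falls significantly (2 sigma). Hits were called by the authors by a rule that is not shown; the count of time points alone does not decide it.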

Sequences of proteins named here, by UniProt entry; tags and fusion partners are left off. A change or cut given only in a name is not applied to a line headed by its entry.
UniProt P07947, whole entry, looked up: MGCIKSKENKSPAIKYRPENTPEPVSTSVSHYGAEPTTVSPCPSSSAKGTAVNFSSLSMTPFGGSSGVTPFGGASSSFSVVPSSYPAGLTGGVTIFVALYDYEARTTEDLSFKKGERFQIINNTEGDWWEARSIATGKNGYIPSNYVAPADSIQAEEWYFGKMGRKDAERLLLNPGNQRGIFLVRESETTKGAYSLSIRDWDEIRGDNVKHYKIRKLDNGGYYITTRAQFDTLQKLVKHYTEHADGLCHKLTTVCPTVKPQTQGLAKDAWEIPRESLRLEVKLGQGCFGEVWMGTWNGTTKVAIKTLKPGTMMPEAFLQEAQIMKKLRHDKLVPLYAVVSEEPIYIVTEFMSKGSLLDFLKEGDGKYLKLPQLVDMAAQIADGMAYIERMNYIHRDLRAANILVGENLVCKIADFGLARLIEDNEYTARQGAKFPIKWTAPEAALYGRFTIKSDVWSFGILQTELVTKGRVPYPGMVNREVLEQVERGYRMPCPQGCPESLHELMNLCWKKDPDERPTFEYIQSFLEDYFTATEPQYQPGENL
UniProt P43403: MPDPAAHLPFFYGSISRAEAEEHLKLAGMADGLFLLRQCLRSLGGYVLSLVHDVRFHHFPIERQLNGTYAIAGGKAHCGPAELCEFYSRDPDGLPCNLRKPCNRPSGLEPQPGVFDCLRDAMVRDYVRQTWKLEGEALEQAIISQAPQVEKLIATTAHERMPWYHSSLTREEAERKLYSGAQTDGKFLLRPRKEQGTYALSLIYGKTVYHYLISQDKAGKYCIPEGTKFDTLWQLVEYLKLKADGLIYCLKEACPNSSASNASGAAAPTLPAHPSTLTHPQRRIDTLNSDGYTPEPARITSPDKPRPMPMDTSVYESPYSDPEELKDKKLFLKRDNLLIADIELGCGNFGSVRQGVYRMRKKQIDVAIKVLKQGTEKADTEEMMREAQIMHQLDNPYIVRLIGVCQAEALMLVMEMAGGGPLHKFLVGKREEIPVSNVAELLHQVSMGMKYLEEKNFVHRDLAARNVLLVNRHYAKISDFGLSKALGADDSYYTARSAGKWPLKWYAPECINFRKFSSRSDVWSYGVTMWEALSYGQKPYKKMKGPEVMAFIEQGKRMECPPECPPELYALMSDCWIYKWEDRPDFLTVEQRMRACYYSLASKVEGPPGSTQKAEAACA
UniProt P11802: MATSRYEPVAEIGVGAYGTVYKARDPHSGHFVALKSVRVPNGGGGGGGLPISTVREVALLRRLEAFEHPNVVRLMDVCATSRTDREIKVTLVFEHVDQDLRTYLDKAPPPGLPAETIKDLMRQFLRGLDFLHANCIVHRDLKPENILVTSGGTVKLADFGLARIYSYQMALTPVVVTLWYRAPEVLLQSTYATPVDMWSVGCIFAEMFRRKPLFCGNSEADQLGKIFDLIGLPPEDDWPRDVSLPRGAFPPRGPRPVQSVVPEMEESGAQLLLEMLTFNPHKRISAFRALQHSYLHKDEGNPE
UniProt P50613: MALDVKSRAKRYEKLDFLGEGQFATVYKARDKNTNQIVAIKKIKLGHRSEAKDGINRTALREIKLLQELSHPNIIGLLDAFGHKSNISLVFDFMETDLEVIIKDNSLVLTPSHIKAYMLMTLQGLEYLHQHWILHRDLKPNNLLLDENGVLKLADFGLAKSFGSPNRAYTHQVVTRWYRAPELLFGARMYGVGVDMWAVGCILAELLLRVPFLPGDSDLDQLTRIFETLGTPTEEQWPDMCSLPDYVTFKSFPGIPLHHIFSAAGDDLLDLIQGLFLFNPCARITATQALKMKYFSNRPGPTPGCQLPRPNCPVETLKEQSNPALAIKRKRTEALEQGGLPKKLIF
UniProt P50750, whole entry: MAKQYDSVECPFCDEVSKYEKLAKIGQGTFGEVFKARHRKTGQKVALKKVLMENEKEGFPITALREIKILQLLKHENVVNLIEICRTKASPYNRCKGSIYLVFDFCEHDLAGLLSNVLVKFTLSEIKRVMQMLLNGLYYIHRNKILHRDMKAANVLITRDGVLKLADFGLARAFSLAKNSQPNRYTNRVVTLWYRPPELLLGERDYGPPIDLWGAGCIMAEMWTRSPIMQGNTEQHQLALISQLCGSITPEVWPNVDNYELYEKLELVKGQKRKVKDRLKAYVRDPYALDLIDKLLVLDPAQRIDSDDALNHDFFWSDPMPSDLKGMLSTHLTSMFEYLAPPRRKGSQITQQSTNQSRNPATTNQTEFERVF

What was measured:
Conditions in all cases: K562; 2-18 h
[1] = target: YES1 (UniProt P07947); test: number of time points (of 5) at which kinase-Nluc abundance scored as decreased, DMSO-normalised (count); higher = more persistent destabilization
[2] = target: ZAK (UniProt Q9NYL2); test: as above
[3] = target: ZAP70 (UniProt P43403); test: as above
[4] = target: CDK4 (UniProt P11802); test: number of time points (of 4; 2 h point missing) at which kinase-Nluc abundance scored as decreased, DMSO-normalised (count); higher = more persistent destabilization
[5] = target: CDK7 (UniProt P50613); test: as above
[6] = target: CDK9 (UniProt P50750); test: as above

Measured: number of time points

O=c1cc(-c2cccc3c2Sc2ccccc2S3)oc(N2CCOCC2)c1 (10 µM)
0: all assays above

C=CC(=O)N1CCC[C@H](n2c(=O)n(-c3ccc(Oc4ccccc4)cc3)c3c(N)ncnc32)C1 [ONO-4059 (analog)] (10 µM)
0: all assays above

CC(C)N1CCN(c2ccc(Nc3ncc4cc5n(c4n3)C3(CCCCC3)CNC5=O)nc2)CC1 [Lerociclib (dihydrochloride)] (2 µM)
1: [5]
0: all other assays above

CC(C)CNc1ccnc(NCc2csc(-c3ccccc3)n2)n1 [KHS101 hydrochloride] (2.5 µM)
1: [5]
0: all other assays above

Cc1ccc(C(=O)Nc2sc(Nc3ccccc3)nc2C(N)=O)cc1 (10 µM)
0: all assays above

CC(C)=CC(=O)O[C@H]1Cc2cc3ccc(=O)oc3cc2OC1(C)C [Decursin] (10 µM)
0: all assays above

C=CC(=O)Nc1cccc(-c2cccc3cnc(Nc4ccc(N5CCN(CCO)CC5)c(F)c4F)nc23)c1 [Olafertinib] (2.5 µM)
0: all assays above

CNc1nc(Nc2ccc(C(=O)N3CCOCC3)cc2OC)ncc1Cl (2.5 µM)
0: all assays above

Cc1nc(-c2cnn(C)c2)nc2c1[nH]c1ncc(-c3ccc(N4CCN(C)CC4)cc3)cc12 [GNE 220 (hydrochloride)] (10 µM)
0: all assays above

CNc1cc(Nc2cccn(-c3ccccn3)c2=O)nn2c(C(=O)N[C@@H]3C[C@@H]3F)cnc12 (2.5 µM)
0: all assays above

COc1ccc(-c2c(C)nn3c(NCCN4CCOCC4)cc(C)nc23)cc1OC (10 µM)
0: all assays above

NC(=O)N1CCC(CC(=O)N2CCC([C@H]3c4ncc(Br)cc4CCc4cc(Cl)cc(Br)c43)CC2)CC1 [Lonafarnib] (2.5 µM)
0: all assays above

Structures from the list above containing fluorine, in the order listed:
C=CC(=O)Nc1cccc(-c2cccc3cnc(Nc4ccc(N5CCN(CCO)CC5)c(F)c4F)nc23)c1 [Olafertinib] (2.5 µM)
0: all assays above

CNc1cc(Nc2cccn(-c3ccccn3)c2=O)nn2c(C(=O)N[C@@H]3C[C@@H]3F)cnc12 (2.5 µM)
0: all assays above

Further results

COc1ccccc1C(=O)/C=C/c1ccccc1C(=O)O (10 µM)
0: all assays above

COc1cc(/C=C/C(=O)N2CCC=CC2=O)cc(OC)c1OC [Piperlongumine] (2.5 µM)
0: all assays above

Cc1cccc(-c2[nH]c(C(C)(C)C)nc2-c2ccc3nccnc3c2)n1 (10 µM)
0: all assays above

Cc1ccc(Oc2nc3cc(-c4ccc(-c5ccccc5)cc4)c(Cl)cc3[nH]2)cc1C(=O)O (10 µM)
0: all assays above

O=[N+]([O-])c1ccc2c(c1)S(=O)(=O)C=C2 [Stattic] (2.5 µM)
1: [5]
0: all other assays above

COCCNc1cc(NC(=O)N2CCCc3cc(CN4CCN(C)CC4=O)c(C=O)nc32)ncc1C#N [Roblitinib] (10 µM)
0: all assays above

COc1ccc(N=Nc2c(N)n[nH]c2N)cc1 (10 µM)
0: all assays above

C[C@@H]1CC(=O)c2c(ccc3c2C(=O)c2cccc(O)c2C3=O)C1 [Ochromycinone] (10 µM)
0: all assays above

COc1c(Nc2cc(C)[nH]n2)nc(Sc2ccc(S(=O)(=O)Cc3cccc([N+](=O)[O-])c3F)cc2F)nc1N1CCCCC1 [Centrinone-B] (2.5 µM)
2: [4]
3: [6]
0: all other assays above

Cc1ccc2c(Nc3cccc(Cl)c3F)nccc2c1NC(=O)c1csc2c(N)ncnc12 [Belvarafenib] (10 µM)
2: [4]
0: all other assays above

COc1nn(C)cc1Nc1nccc(-c2c[nH]c3c(NC(=O)[C@@H](C)N4CCN(C)CC4)cccc23)n1 (10 µM)
0: all assays above

O=C(O)c1cccc(CN2C(=O)/C(=C(\c3ccccc3)c3ccc(Cl)cc3)c3ccccc32)c1 (2.5 µM)
0: all assays above

Nc1nccc(Oc2ccc(NC(=O)c3c[nH]cc(-c4ccc(F)cc4)c3=O)cc2F)c1Cl (10 µM)
4: [5]
1: [1]
0: all other assays above

COc1ccc2cc(-c3nc(-c4ccc([S+](C)[O-])cc4)[nH]c3-c3ccncc3)ccc2c1 (stereo not drawn) [Tie2 kinase inhibitor 1] (2.5 µM)
0: all assays above

O=C1NC(=Nc2c(Cl)cccc2Cl)S/C1=C\c1ccc2nccnc2c1 (2.5 µM)
1: [6]
0: all other assays above

Nc1nc(N)c2nc(-c3cccc(O)c3)cnc2n1 (10 µM)
0: all assays above

O=C1NC(=O)C(c2cnc3ccccn23)=C1c1cn2c3c(cc(F)cc13)CNCC2 [GSK-3 inhibitor 1] (2.5 µM)
0: all assays above

CN1CCC(c2ccccc2CC(C)(C)Nc2nc(N3CCOCC3)nc(-n3c(C(F)F)nc4ccccc43)n2)CC1 [Zandelisib] (10 µM)
0: all assays above

C[C@@H]1CCNC(=O)c2cc3ccc(C(=O)Nc4nc5ccccc5n4CCCN(C)C)cc3n21 (10 µM)
0: all assays above

CC[C@@](C)(Nc1ccnc(-c2c[nH]c3ncccc23)n1)C(=O)NCC(F)(F)F [Decernotinib] (10 µM)
0: all assays above

Cc1ccc(-c2csc3ncnc(SCCC(=O)O)c23)cc1 (10 µM)
0: all assays above

CNC(=O)c1ccccc1Oc1nc(Nc2cc(OC)c(OC)c(OC)c2)ncc1Br (2.5 µM)
0: all assays above

COc1ccc(-c2coc3cc(O)ccc3c2=O)cc1 [Formononetin] (10 µM)
0: all assays above

CC(C)S(=O)(=O)c1ccc2nccc(Nc3ccc4scnc4c3)c2c1 (10 µM)
0: all assays above

Taken from the results shown, two compounds:
CC[C@@](C)(Nc1ccnc(-c2c[nH]c3ncccc23)n1)C(=O)NCC(F)(F)F [Decernotinib] (10 µM)
0: all assays above

Cc1ccc(-c2csc3ncnc(SCCC(=O)O)c23)cc1 (10 µM)
0: all assays above

Later entries:

C=CC(=O)Nc1cc(-n2c(=O)ccc3cnc4ccc(-c5ccc(NS(C)(=O)=O)cc5)cc4c32)ccc1C (10 µM)
0: all assays above

CCc1cncnc1N1CCN(Cc2nc3ccc(C(F)(F)F)cc3[nH]2)CC1 (10 µM)
0: all assays above

COc1ccc(/C=C/C(=O)C2(C(=O)/C=C/c3ccc(OC)c(OC)c3)CCCCC2)cc1OC (2.5 µM)
1: [5]
0: all other assays above

C=CC(=O)Nc1cccc(CNc2nc(Nc3ccc(N4CCN(C)CC4)cc3OC)ncc2Cl)c1 (10 µM)
0: all assays above

O=C(Nc1cccc(C(F)(F)F)c1)c1cccc2cc(Oc3cc(CO)ncn3)ccc12 (10 µM)
0: all assays above

O=C(Nc1nc2ccc(NC(=O)C34CC5CC(CC(C5)C3)C4)cc2s1)c1ccccc1 (10 µM)
0: all assays above

CCCCCCCC/C=C\CCCCCCCCCCCC(=O)O [Erucic acid] (10 µM)
0: all assays above

CCN(CC)c1ccc2cc(-c3nc4cc(C)ccc4o3)c(=O)oc2c1 (10 µM)
0: all assays above

Cc1ccc(NC(=O)c2ccnc(C(F)(F)F)c2)cc1-c1cc(OCCO)nc(N2CCOCC2)c1 (10 µM)
0: all assays above

CCN(CC)CCC(=O)N1N=C(c2c(-c3ccccc3)c3cc(Br)ccc3[nH]c2=O)CC1c1ccc(Br)cc1 (stereo not drawn) (2.5 µM)
0: all assays above

O[C@@H]1CO[C@H]2[C@@H]1OC[C@H]2Oc1nc2nc(-c3ccc(-c4ccccc4)cc3)c(Cl)cc2[nH]1 (10 µM)
0: all assays above

Cc1cc(C)nc(NS(=O)(=O)c2ccc(NC(=S)NC(=O)COc3ccc(Br)cc3Cl)cc2)n1 (2.5 µM)
0: all assays above
